Values of other authors as cited in patent publication US20130196954A1, “METHOD OF TREATING ACNE” (priority 2010, published 2013).
For at least one compound, name, drawing or mass did not settle the structure.

Tested on: moderate facial acne
Conditions: cited from earlier work
[1] = 20 milligrams twice daily oral for 6 months

For `C[C@H]1c2cccc(O)c2C(=O)C2=C(O)[C@]3(O)C(=O)C(C(N)=O)=C(O)[C@@H](N(C)C)[C@@H]3[C@@H](O)[C@@H]21` [Doxycycline 100 mg, doxycycline], which “antimicrobial effect on the skin flora” value [1] is on record?
The value was “without causing a detectable antimicrobial effect on the skin flora”.

What about the “number of inflammatory and non-inflammatory lesions” value [1] of the same compound?
Its value is “significantly reduced”.

What about the “mean reductions in total inflammatory lesions” value (20 milligrams twice daily oral, at 4 months of treatment) of the same compound?
The value was 36%.
